# Source: patent publication US20210171604A1, “PEPTIDES FOR THE TREATMENT OF TYPE 2 DIABETES” (YISSUM RESEARCH DEVELOPMENT COMPANY OF THE HEBREW …, priority 2017, published 2021)
# The star is where a group is joined. Myristoyl = CCCCCCCCCCCCCC(=O)*
# Tested on: obese diabetic mice (db/db)
# Assay: Blood glucose response of obese diabetic (db/db) mice to peptide treatment
# Format: in vivo
# Conditions: mean, n=3
# Description: ACD-004 was tested for its effect on hyperglycemia in obese diabetic mice (db/db).
# Protocol: Mice (n=3) were kept on normal, unlimited diet. Prior to peptide treatment, baseline measurements of blood glucose and body weight were taken every ˜3 weeks through a period of 2.5 months (see time points (−1)-(−4) in Table 3 below). Injections of the peptide (intraperitoneally, ˜35 mg/kg) started on time point 0 and continued on time points 1 and 2, twice a day. Blood glucose and body weight were measured at the indicated days.
# The results, summarized in Table 3, are expressed as mean % change in blood glucose compared to the first baseline measurement (time point (−4)).
# Mice (n=16) were kept on normal, unlimited diet. Injections of the peptide (i.p., 20 mg/kg, n=9) or vehicle (i.p., n=7) started at 3-4 m of age (time point ‘0’) and continued for 3 days, once a day. In a similar experiment the peptide […] were injected to mice with severe diabetes for 7 days.
substance,measurement,setting,value
"Myristoyl-GRNFQKGQVTR-NH2 [ACD-004, myristoylated, C-terminally amidated peptide derived from h-HO-1]",Body Wt.,"ACD-004 i.p. ~35 mg/kg twice a day at time points 0-2, time point 3, age 18.3 wks",54 g
same,Body Wt.,"ACD-004 i.p. ~35 mg/kg twice a day from time point 0, time point 1, age 17.9 wks",55.3 g
same,Body Wt.,"ACD-004 i.p. ~35 mg/kg twice a day from time point 0, time point 2, age 18.1 wks",54 g
